Test results from the supplement of paper PMC4604168 (melanoma cell lines).
This is one part of the list. Repeats are few or missing, and single values can be far off.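 The apoptosis fraction was the count of cleaved-PARP antibody-stained nuclei relative to all DNA-stained nuclei, imaged in 1,536-well plates. Screening doses were set so most cells survived, and baseline and induced cleaved-PARP levels vary greatly across cell lines.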

Columns and labels:
Experiment in all cases: cleaved PARP positive nuclei fraction relative to DMSO control; melanoma cells; higher = more apoptosis
Conditions in all cases: library dose: low library concentration; 72 h
501Mel = test system: 501Mel
A101D = test system: A101D
A2058 = test system: A2058
A375 = test system: A375
C32 = test system: C32
CBRC008 = test system: CBRC008 (line from a melanoma biopsy)
CBRC013 = test system: CBRC013 (line from a melanoma biopsy)
CBRC014 = test system: CBRC014 (line from a melanoma biopsy)
CBRC016 = test system: CBRC016 (line from a melanoma biopsy)
CBRC017 = test system: CBRC017 (line from a melanoma biopsy)
COLO792 = test system: COLO792
COLO800 = test system: COLO800
COLO829 = test system: COLO829
G361 = test system: G361
IPC-298 = test system: IPC-298
IST-MEL1 = test system: IST-MEL1
LB2518-MEL = test system: LB2518-MEL
LOXIMVI = test system: LOXIMVI
MEL-HO = test system: MEL-HO

SMILES | cleaved PARP positive nuclei fraction (501Mel) | cleaved PARP positive nuclei fraction (A101D) | cleaved PARP positive nuclei fraction (A2058) | cleaved PARP positive nuclei fraction (A375) | cleaved PARP positive nuclei fraction (C32) | cleaved PARP positive nuclei fraction (CBRC008) | cleaved PARP positive nuclei fraction (CBRC013) | cleaved PARP positive nuclei fraction (CBRC014) | cleaved PARP positive nuclei fraction (CBRC016) | cleaved PARP positive nuclei fraction (CBRC017) | cleaved PARP positive nuclei fraction (COLO792) | cleaved PARP positive nuclei fraction (COLO800) | cleaved PARP positive nuclei fraction (COLO829) | cleaved PARP positive nuclei fraction (G361) | cleaved PARP positive nuclei fraction (IPC-298) | cleaved PARP positive nuclei fraction (IST-MEL1) | cleaved PARP positive nuclei fraction (LB2518-MEL) | cleaved PARP positive nuclei fraction (LOXIMVI) | cleaved PARP positive nuclei fraction (MEL-HO)
NC(=O)c1ccc(N(C(N)=O)c2c(F)cccc2F)nc1-c1ccc(F)cc1F + OCCn1cc(-c2cnc3nnn(Cc4ccc5ncccc5c4)c3n2)cn1 [PF04217903] (first compound 0.4 µM, partner dose 1 µM) | 159% | 77.6% | 59.5% | 85.7% | 147% | 143% | 96.1% | 80.1% | 77.7% | 113% | 112% | 57.8% | 102% | 77.2% | 87.2% | 126% | 100% | 115% | 45.7%
CCCCCCCCc1ccc(CCC(N)(CO)CO)cc1 [fingolimod] + C[C@@H]1CCN(C(=O)CC#N)C[C@@H]1N(C)c1ncnc2[nH]ccc12 [CP690550] (first compound 2 µM, partner dose 1 µM) | 211% | 147% | 71.2% | 83.4% | 133% | 87.8% | 158% | 95.1% | 102% | 119% | 52.1% | 125% | 65.3% | 113% | 42.6% | 103% | 85% | 131% | 135%
NC1(c2ccc(-c3nc4ccn5c(=O)[nH]nc5c4cc3-c3ccccc3)cc2)CCC1 + CC(C)(C)c1cnc(CSc2cnc(NC(=O)C3CCNCC3)s2)o1 [SNS-032] (first compound 0.4 µM, partner dose 0.01 µM) | 88.1% | 189% | 40.9% | 114% | 98.2% | 71.8% | 90.6% | 64.2% | 87.7% | 113% | 182% | 125% | 145% | 18% | 133% | 255% | 111% | 289% | 257%
CC(=O)O[C@@]12CO[C@@H]1C[C@H](O)[C@@]1(C)C(=O)[C@H](O)C3=C(C)[C@@H](OC(=O)[C@H](O)[C@@H](NC(=O)OC(C)(C)C)c4ccccc4)C[C@@](O)([C@@H](OC(=O)c4ccccc4)[C@H]21)C3(C)C [Docetaxel] + OCCn1cc(-c2cnc3nnn(Cc4ccc5ncccc5c4)c3n2)cn1 [PF04217903] (first compound 0.0001 µM, partner dose 1 µM) | 185% | 117% | 5210% | 6710% | 774% | 359% | 125% | 122% | 262% | 159% | 426% | 458% | 264% | 484% | 313% | 55.1% | 176% | 193% | 235%
CN(c1ncccc1CNc1nc(Nc2ccc3c(c2)CC(=O)N3)ncc1C(F)(F)F)S(C)(=O)=O + COc1cc(Nc2ncc(F)c(Nc3ccc4c(n3)NC(=O)C(C)(C)O4)n2)cc(OC)c1OC [Tamatinib] (first compound 0.08 µM, partner dose 0.4 µM) | 108% | 95.9% | 273% | 161% | 119% | 83.5% | 118% | 97.9% | 131% | 75.3% | 181% | 76.6% | 130% | 84.3% | 106% | 69.1% | 199% | 158% | 144%
NC(=O)c1ccc(N(C(N)=O)c2c(F)cccc2F)nc1-c1ccc(F)cc1F + COc1cc2c(Oc3ccc4[nH]c(C)cc4c3F)ncnc2cc1OCCCN1CCCC1 [cediranib] (first compound 0.4 µM, partner dose 0.4 µM) | 80.1% | 52.2% | 129% | 157% | 141% | 75.4% | 147% | 158% | 74.4% | 137% | 59.8% | 185% | 34.4% | 79.8% | 88.9% | 99.6% | 60.5% | 60.1% | 67.4%
COc1ccc(C2=N[C@@H](c3ccc(Cl)cc3)[C@@H](c3ccc(Cl)cc3)N2C(=O)N2CCNC(=O)C2)c(OC(C)C)c1 [Nutlin-3] + Cc1ccc(NC(=O)c2cccc(N(C)C)c2)cc1NC(=O)c1ccc(O)cc1 [ZM336372] (first compound 0.1 µM, partner dose 2 µM) | 96% | 41.1% | 198% | 107% | 215% | 93.9% | 170% | 107% | 111% | 165% | 18.9% | 93% | 82.9% | 39.6% | 102% | 95.3% | 213% | 62.5% | 71.1%
CC1(C)CCC(c2ccc(Cl)cc2)=C(CN2CCN(c3ccc(C(=O)NS(=O)(=O)c4ccc(N[C@H](CCN5CCOCC5)CSc5ccccc5)c(S(=O)(=O)C(F)(F)F)c4)cc3)CC2)C1 + CN(C)S(=O)(=O)c1ccc2c(c1)/C(=C/c1cc3c([nH]1)CCCC3)C(=O)N2 [SU6656] (first compound 0.4 µM, partner dose 0.4 µM) | 77.5% | 231% | 150% | 204% | 1540% | 339% | 368% | 747% | 490% | 407% | 400% | 111% | 87.1% | 127% | 48.4% | 65.5% | 50.8% | 352% | 79.3%
COc1ccc(C2=N[C@@H](c3ccc(Cl)cc3)[C@@H](c3ccc(Cl)cc3)N2C(=O)N2CCNC(=O)C2)c(OC(C)C)c1 [Nutlin-3] + CO[C@@H]1[C@H](N(C)C(=O)c2ccccc2)C[C@H]2O[C@]1(C)n1c3ccccc3c3c4c(c5c6ccccc6n2c5c31)C(=O)NC4 [Midostaurin] (first compound 0.1 µM, partner dose 0.08 µM) | 94.6% | 49.9% | 211% | 520% | 90.7% | 66.2% | 101% | 105% | 123% | 130% | 282% | 116% | 106% | 71.2% | 91.6% | 66.4% | 49% | 59.3% | 105%
CC1(C)CCC(c2ccc(Cl)cc2)=C(CN2CCN(c3ccc(C(=O)NS(=O)(=O)c4ccc(N[C@H](CCN5CCOCC5)CSc5ccccc5)c(S(=O)(=O)C(F)(F)F)c4)cc3)CC2)C1 + CN(NC(=O)CC(=O)NN(C)C(=S)c1ccccc1)C(=S)c1ccccc1 [STA4783] (first compound 0.4 µM, partner dose 0.006 µM) | 63% | 218% | 89.4% | 1010% | 1960% | 1910% | 520% | 11700% | 710% | 902% | 368% | 268% | 256% | 164% | 306% | 356% | 102% | 101% | 34.4%
C[C@]1(O)C[C@@H](c2nc(-c3ccc4ccc(-c5ccccc5)nc4c3)c3c(N)nccn32)C1 + C=CCn1c(=O)c2cnc(Nc3ccc(N4CCN(C)CC4)cc3)nc2n1-c1cccc(C(C)(C)O)n1 [MK1775] (first compound 0.4 µM, partner dose 0.02 µM) | 565% | 228% | 151% | 429% | 94.4% | 55.5% | 119% | 113% | 59.1% | 76.4% | 162% | 44.7% | 117% | 52.8% | 113% | 186% | 58% | 157% | 132%
NC(=O)c1ccc(N(C(N)=O)c2c(F)cccc2F)nc1-c1ccc(F)cc1F + Cc1ccc(NC(=O)c2cccc(N(C)C)c2)cc1NC(=O)c1ccc(O)cc1 [ZM336372] (first compound 0.4 µM, partner dose 2 µM) | 75.3% | 86.3% | 74.7% | 195% | 46% | 169% | 79.7% | 96.6% | 112% | 92.5% | 92% | 108% | 89.3% | 113% | 125% | 102% | 107% | 85% | 76.2%
CS(=O)(=O)c1ccc(C(=O)Nc2ccc(Cl)c(-c3ccccn3)c2)c(Cl)c1 [vismodegib] + OCCn1cc(-c2cnc3nnn(Cc4ccc5ncccc5c4)c3n2)cn1 [PF04217903] (first compound 1 µM, partner dose 1 µM) | 47.6% | 70% | 59.6% | 95.6% | 59.7% | 120% | 123% | 82.4% | 279% | 64.2% | 95.9% | 97.8% | 138% | 72.6% | 23.3% | 49.8% | 125% | 298% | 33.7%
COc1ccc(C2=N[C@@H](c3ccc(Cl)cc3)[C@@H](c3ccc(Cl)cc3)N2C(=O)N2CCNC(=O)C2)c(OC(C)C)c1 [Nutlin-3] + NCC(=O)Nc1ccc(-n2nc(C(F)(F)F)cc2-c2ccc3c(ccc4ccccc43)c2)cc1 [OSU03012] (first compound 0.1 µM, partner dose 1 µM) | 178% | 123% | 156% | 3140% | 141% | 488% | 101% | 95.7% | 300% | 113% | 114% | 235% | 78.5% | 163% | 108% | 145% | 48% | 63.2% | 29.9%
NC(=O)c1ccc(N(C(N)=O)c2c(F)cccc2F)nc1-c1ccc(F)cc1F + NC(=O)Nc1cc(-c2cccc(F)c2)sc1C(=O)N[C@H]1CCCNC1 [AZD7762] (first compound 0.4 µM, partner dose 0.02 µM) | 282% | 52.2% | 25% | 90.4% | 118% | 159% | 119% | 110% | 22.4% | 90.2% | 103% | 12.3% | 32% | 93.5% | 45.7% | 286% | 125% | 46.5% | 90.7%
C[C@@H](N)c1ccc(C(=O)Nc2ccnc3[nH]ccc23)cc1 + Cc1cc(N2CCOCC2)cc2[nH]c(-c3c(NC[C@@H](O)c4cccc(Cl)c4)cc[nH]c3=O)nc12 [BMS536924] (first compound 0.4 µM, partner dose 0.2 µM) | 81% | 226% | 48.7% | 67.5% | 75.6% | 235% | 97.4% | 85% | 158% | 162% | 211% | 60.5% | 57.2% | 153% | 252% | 108% | 170% | 102% | 86.9%
Cn1cnc2c(F)c(Nc3ccc(Br)cc3Cl)c(C(=O)NOCCO)cc21 [selumetinib] + COc1cc(Nc2ncc(F)c(Nc3ccc4c(n3)NC(=O)C(C)(C)O4)n2)cc(OC)c1OC [Tamatinib] (first compound 0.015 µM, partner dose 0.4 µM) | 193% | 23.5% | 203% | 120% | 20.6% | 362% | 163% | 90.6% | 57.3% | 141% | 238% | 76.3% | 259% | 150% | 160% | 73.8% | 188% | 328% | 70.7%

Four successive records already listed:
SMILES | cleaved PARP positive nuclei fraction (501Mel) | cleaved PARP positive nuclei fraction (A101D) | cleaved PARP positive nuclei fraction (A2058) | cleaved PARP positive nuclei fraction (A375) | cleaved PARP positive nuclei fraction (C32) | cleaved PARP positive nuclei fraction (CBRC008) | cleaved PARP positive nuclei fraction (CBRC013) | cleaved PARP positive nuclei fraction (CBRC014) | cleaved PARP positive nuclei fraction (CBRC016) | cleaved PARP positive nuclei fraction (CBRC017) | cleaved PARP positive nuclei fraction (COLO792) | cleaved PARP positive nuclei fraction (COLO800) | cleaved PARP positive nuclei fraction (COLO829) | cleaved PARP positive nuclei fraction (G361) | cleaved PARP positive nuclei fraction (IPC-298) | cleaved PARP positive nuclei fraction (IST-MEL1) | cleaved PARP positive nuclei fraction (LB2518-MEL) | cleaved PARP positive nuclei fraction (LOXIMVI) | cleaved PARP positive nuclei fraction (MEL-HO)
CC(=O)O[C@@]12CO[C@@H]1C[C@H](O)[C@@]1(C)C(=O)[C@H](O)C3=C(C)[C@@H](OC(=O)[C@H](O)[C@@H](NC(=O)OC(C)(C)C)c4ccccc4)C[C@@](O)([C@@H](OC(=O)c4ccccc4)[C@H]21)C3(C)C [Docetaxel] + OCCn1cc(-c2cnc3nnn(Cc4ccc5ncccc5c4)c3n2)cn1 [PF04217903] (first compound 0.0001 µM, partner dose 1 µM) | 185% | 117% | 5210% | 6710% | 774% | 359% | 125% | 122% | 262% | 159% | 426% | 458% | 264% | 484% | 313% | 55.1% | 176% | 193% | 235%
CN(c1ncccc1CNc1nc(Nc2ccc3c(c2)CC(=O)N3)ncc1C(F)(F)F)S(C)(=O)=O + COc1cc(Nc2ncc(F)c(Nc3ccc4c(n3)NC(=O)C(C)(C)O4)n2)cc(OC)c1OC [Tamatinib] (first compound 0.08 µM, partner dose 0.4 µM) | 108% | 95.9% | 273% | 161% | 119% | 83.5% | 118% | 97.9% | 131% | 75.3% | 181% | 76.6% | 130% | 84.3% | 106% | 69.1% | 199% | 158% | 144%
NC(=O)c1ccc(N(C(N)=O)c2c(F)cccc2F)nc1-c1ccc(F)cc1F + COc1cc2c(Oc3ccc4[nH]c(C)cc4c3F)ncnc2cc1OCCCN1CCCC1 [cediranib] (first compound 0.4 µM, partner dose 0.4 µM) | 80.1% | 52.2% | 129% | 157% | 141% | 75.4% | 147% | 158% | 74.4% | 137% | 59.8% | 185% | 34.4% | 79.8% | 88.9% | 99.6% | 60.5% | 60.1% | 67.4%
COc1ccc(C2=N[C@@H](c3ccc(Cl)cc3)[C@@H](c3ccc(Cl)cc3)N2C(=O)N2CCNC(=O)C2)c(OC(C)C)c1 [Nutlin-3] + Cc1ccc(NC(=O)c2cccc(N(C)C)c2)cc1NC(=O)c1ccc(O)cc1 [ZM336372] (first compound 0.1 µM, partner dose 2 µM) | 96% | 41.1% | 198% | 107% | 215% | 93.9% | 170% | 107% | 111% | 165% | 18.9% | 93% | 82.9% | 39.6% | 102% | 95.3% | 213% | 62.5% | 71.1%
